# Reference: PubChem BioAssay AID624291 (National Center for Advancing Translational Sciences (NCATS), 2012)
# Among all 350,000 compounds or so, about 220 (0.063%) were called active. Inconclusive results, whose numbers are uncertain, are shown with a selection of clear calls. Calls follow the shape of the dose curve; as a rule, active = well fitted activation curve with a large enough effect; inconclusive = small, poorly fitted or top-dose-only effect; inactive = no such curve, though single readings can be large or run the other way. A potency beside an inconclusive call is a rough fit, not a confirmed value.
# Assay: qHTS for Activators of Integrin-Mediated Alleviation for Muscular Dystrophy; also: nearly all actives have a fitted effect of over 60% in size;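 as to activation: 100% = response of the positive control SU9516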
# Details: alpha7betagal myoblasts, beta-gal FDG fluorescence, 48 h; activation: at 38.3 µM (top of the series)
# Summary of the method: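 Alpha7betagal+/- myoblasts (passage 13) were plated 16-24 hr, then exposed to compounds (1:260 dilution of DMSO stock) for 48 hours at 37C. After MPER lysis, β-galactosidase reporter activity was read as FDG fluorescence (ex 480/em 540) after 30 minutes.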
# Potency is read from the fitted curve at half-maximal effect.
SMILES,Potency,activation
O=C(CCc1ccccc1)NNC(=S)NCCc1ccccc1,inactive,
CC(C#N)N1CCN(S(=O)(=O)c2ccc3c(c2)CCC3)CC1 (stereo unspecified),"inconclusive: 3.16 µM [activator, single point]",
CC1CCCN(c2ccc3nc4ccccc4c(=O)n3n2)C1 (stereo unspecified),inactive,
S=C(NCCCc1ccccc1)Nc1ccccc1Cl,inactive,
CC(C)N(Cc1c(O)ccc2c(=O)c(-c3ccc(Cl)cc3)coc12)C(C)C,"inconclusive: 1.58 µM [activator, partial curve, poor fit]",
CCOC(=O)N1CCN(CC(O)COc2ccc(CC)cc2)CC1 (stereo unspecified),"inconclusive: 1.26 µM [activator, partial curve, poor fit]",
CC(=O)C1=C(O)C(=O)N(C)C1c1ccccc1[N+](=O)[O-] (stereo unspecified),"inconclusive: 2.51 µM [activator, single point]",
COc1ccccc1-c1ocnc1C(=O)N1CCN(S(=O)(=O)c2ccc(NC(C)=O)cc2)CC1,"inconclusive: 5.01 µM [activator, single point]",
C=CCN1C(=O)C(Cc2ccc(SC(F)F)cc2)SC1=Nc1ccc(C(=O)O)cc1 (stereo unspecified),"inconclusive: 11.2 µM [activator, single point]",
CNS(=O)(=O)c1ccc(C)cc1,"inconclusive: 20 µM [activator, single point]",
COc1ccccc1NC(=O)Nc1nc(CC(=O)NCc2c(F)cccc2F)cs1,inactive,
COc1cc(CN(C)c2ncnc3sccc23)ccc1OC(F)F,"inconclusive: 3.16 µM [activator, single point]",
COc1ccc(N(C(=O)c2ccc3c(c2)OCO3)C2C=CS(=O)(=O)C2)c(OC)c1 (stereo unspecified),"inconclusive: 5.01 µM [activator, single point]",
O=[N+]([O-])c1ccc(Sc2cccc3cccnc23)c([N+](=O)[O-])c1,"inconclusive: 28.2 µM [activator, single point]",
CCOC(=O)N1CCC(NC(=O)c2ccc(CS(=O)c3ccc(Cl)cc3)o2)CC1 (stereo unspecified),"inconclusive: 11.2 µM [activator, partial curve, poor fit]",
O=C(c1cc(COc2ccc(F)cc2F)on1)N1CCCC(c2ccccc2)C1 (stereo unspecified),"inconclusive: 4.47 µM [activator, single point]",
Cc1cccc(-c2nc(CS(=O)CC(=O)NCCc3ccc(Cl)cc3)c(C)o2)c1 (stereo unspecified),"inconclusive: 1.78 µM [activator, partial curve, poor fit]",
O=C(Nc1nc2c(Cl)cccc2s1)C1CC1,"inconclusive: 15.8 µM [activator, single point]",
Cc1ccc(-c2csc3ncnc(SCC(N)=O)c23)cc1,inactive,
N#Cc1ccc(CSc2ncccn2)cc1,"inconclusive: 5.01 µM [activator, single point]",
CN(C)c1ccc(NC(=O)Cc2ccccc2)c2ccccc12,"inconclusive: 4.47 µM [activator, single point]",
COC(=O)c1ccc(Cl)c(S(=O)(=O)N2CCCC2)c1,,inconclusive: 16.3% [activator]
CC1CN(C(=O)COC(=O)c2ccc(NC(=O)CC#N)cc2)CC(C)O1 (stereo unspecified),"inconclusive: 1.41 µM [activator, partial curve, poor fit]",

SMILES,Potency,activation
COc1ccccc1N1CCN(C2CC(=O)N(c3cccc(Br)c3)C2=O)CC1 (stereo unspecified),"inconclusive: 5.01 µM [activator, single point]",
CCc1ccc(O)c(N=Cc2cccc(C)c2O)c1,inactive,
CN1CCN(c2ncnc3sc(-c4ccccc4)cc23)CC1,"inconclusive: 2.24 µM [activator, partial curve, poor fit]",
O=C(CCN1C(=O)C2C3CCC(C3)C2C1=O)OCC(=O)c1ccc(Br)cc1 (stereo unspecified),inactive,
COc1ccc(C(C(=O)NC2CCCC2)N(C(=O)c2ccoc2C)c2ccc(C)c(C)c2)cc1 (stereo unspecified),"inconclusive: 15.8 µM [activator, single point]",
O=C(CN1CCN(Cc2ccccc2F)CC1)Nc1ccccc1Cl,"inconclusive: 11.2 µM [activator, single point]",
Cc1ccccc1OCCC(=O)OCC(=O)NCCc1ccc(S(N)(=O)=O)cc1,"inconclusive: 2.82 µM [activator, single point]",
CC(C)(C)NC(=O)c1ccc2c(c1)C(=O)N(Cc1ccco1)C2=O,inactive,
CCOC(=O)c1ccc(N2C(=O)Cc3ccccc3C2=O)cc1,"inconclusive: 14.1 µM [activator, single point]",
O=C(O)CC(Sc1n[nH]c(=S)s1)C(=O)O (stereo unspecified),inactive,
Cc1ccccc1/C=N/n1c(-c2cc(-c3ccccc3)n[nH]2)n[nH]c1=S,"inconclusive: 5.01 µM [activator, single point]",
O=C(Nc1ncccn1)c1cc(-c2ccc(F)cc2)nc2ccccc12,,inconclusive: -28.9% [activator]
OC[C@@H]1[C@@H](c2ccc(F)cc2)C(c2ccccc2)=NN1c1ccccc1,inactive,
Cc1cccc(-c2nnc(NC(=O)c3ccco3)s2)c1,"inconclusive: 3.16 µM [activator, full curve, poor fit]",
Cc1ccc(NC(=O)N(C)c2ccccc2)cc1,"inconclusive: 28.2 µM [activator, single point]",
N#Cc1cccc(NC(=O)COC(=O)Cn2nc(-c3ccccc3)oc2=O)c1,inactive,
CC(=O)Nc1ccc(Nc2nc(-c3cc4ccccc4oc3=O)cs2)cc1,inactive,
CCCOC(=O)c1c(NC(=O)C2CCCO2)sc(C(=O)OC)c1C (stereo unspecified),"inconclusive: 4.47 µM [activator, single point]",
Cc1cc(C(=O)N/N=C/c2c[nH]c3ccccc23)c(C)o1,"inconclusive: 31.6 µM [activator, single point]",
CCOC(=O)C(=O)CC(=O)c1ccc2c(c1)OCCO2,inactive,
COc1ccccc1S(=O)(=O)Cc1ccc(C(=O)NC2CC2)o1,inactive,
CCn1c(C)cc(C(=O)CSc2nnc(-c3ccco3)o2)c1C,inactive,
CS(=O)(=O)c1ccc2nc(NC(=O)CN3CCC(Cc4ccccc4)CC3)sc2c1,"inconclusive: 5.01 µM [activator, single point]",

# As entered above.
# CC(=O)Nc1ccc(Nc2nc(-c3cc4ccccc4oc3=O)cs2)cc1 | Potency: inactive
# CCCOC(=O)c1c(NC(=O)C2CCCO2)sc(C(=O)OC)c1C (stereo unspecified) | Potency: inconclusive: 4.47 µM [activator, single point]
# CCn1c(C)cc(C(=O)CSc2nnc(-c3ccco3)o2)c1C | Potency: inactive
